Consider 23 compounds from PubChem BioAssay AID298 (DTP/NCI, 2004).

SMILES strings stand for the structures. The list does not hold the whole screen: it is rich in T/C values a quarter to a half above the control, in often repeated tests (any T/C) and in doses without a T/C. Further doses and runs are listed elsewhere. T/C: endpoint of the treated group in % of that of the vehicle group. Schedule codes are those of the source, read here as Q, the interval in days (D) or hours (H), X, the number of doses. Some T/C values are followed by the survivors on the day toxicity was checked, most often the fifth; where none is given, no animal had died by that day. Some doses have a count of surviving animals in place of a T/C: the source files T/C as zero there, which appears to mark a toxic dose or a test without result, not a measured value. Survivors were counted at the toxicity check, usually on the fifth day, unless a day is given; later deaths do not show. Some entries were tested several times; the results are listed from low to high.

The assay deals with MX-1 breast xenograft, intrarenal, nude mice, tumor weight. Briefly: NCI In Vivo Anticancer Drug Screen. Data for tumor model Human Mammary Carcinoma MX-1 Xenograft (intrarenal inoculation) in NU/NU BALB/C (nude) mice. The settings on record: T/C endpoint: mean tumor weight change, higher T/C = larger tumour; for T/C: evaluated on day 11. Put shortly: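 T/C readout: treated-group measurement over vehicle-control measurement, using tumor size or survival in tumor-bearing mice.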
(In xenograft studies the graft and the host belong to different species.)

[1] abbreviates: dose: 1200.0 mg/kg/injection, schedule: Q04DX003 (ip), vehicle: saline with Tween-80.
Where [2] appears, read: dose: 300.0 mg/kg/injection, schedule: Q04DX003 (ip), vehicle: saline with Tween-80.
Where [3] appears, read: dose: 600.0 mg/kg/injection, schedule: Q04DX003 (ip), vehicle: saline with Tween-80.

Take `CN(C)C1C(=O)C(C(=O)NP(=O)(NCCCO)N(CCCl)CCCl)=C(O)C2(O)C(=O)C3=C(O)c4c(O)cccc4C(C)(O)C3CC12` (configuration not stated): the survivor count by setting is: (dose: 600.0 mg/kg/injection, schedule: Q04DX003 (sc), vehicle: saline with Tween-80) 0 of 6 on day 11; (dose: 1200.0 mg/kg/injection, schedule: Q04DX003 (sc), vehicle: saline with Tween-80) 0 of 6 on day 11 and 1 of 6 on day 11.

For `ClCCCN1CCCCC1CCl` (configuration not stated), under “dose: 50.0 mg/kg/injection, schedule: Q04DX003 (sc), vehicle: saline”, the survivor count is listed as 0 of 6 on day 11.

As for `O=C(Nc1cc(Cl)ccc1C(=O)O)c1cccc(C[n+]2ccccc2)c1`, the survivor count under setting [1] is given as 0 of 6 on day 11.

With `S=C(NCNC(=S)c1ccncc1)c1ccncc1`, the T/C (dose: 150.0 mg/kg/injection, schedule: Q04DX003 (ip), vehicle: saline with Tween-80) was 136 % of control. Also, under setting [1], the survivor count is on record as 1 of 6 on day 11.

As for `N/C(=N/N=C/c1cc(Br)cc(Br)c1O)NO`, the T/C (dose: 100.0 mg/kg/injection, schedule: Q04DX003 (ip), vehicle: suspension in saline) is 140 % of control [5 of 6 alive on day 11]. The survivor count (dose: 400.0 mg/kg/injection, schedule: Q04DX003 (ip), vehicle: suspension in saline) was 0 of 6 on day 11.

On to `O=c1n(CC2CO2)c(=O)n(CC2CO2)n1CC1CO1` (configuration not stated), for which, where the note is “dose: 75.0 mg/kg/injection, schedule: Q04DX003 (sc), vehicle: suspension in saline”, the survivor count is recorded as 0 of 6 on day 11.

For the compound `CNc1nc(NC)nc(NC)n1`, the survivor count runs as follows: (dose: 200.0 mg/kg/injection, schedule: Q01DX010 (sc), vehicle: Klucel (hydroxypropylcellulose) (HPC)) 1 of 2 on day 11; (dose: 400.0 mg/kg/injection, schedule: Q01DX010 (sc), vehicle: Klucel (hydroxypropylcellulose) (HPC)) 0 of 2 on day 11.

As to `Cc1cnc(/C=N\NC(N)=S)c2cccc(N)c12`, the survivor count is 2 of 6 on day 11 (dose: 250.0 mg/kg/injection, schedule: Q04DX003 (ip), vehicle: saline with Tween-80); 0 of 6 on day 11 (dose: 500.0 mg/kg/injection, schedule: Q04DX003 (ip), vehicle: saline with Tween-80); 0 of 6 on day 11 (dose: 1000.0 mg/kg/injection, schedule: Q04DX003 (ip), vehicle: saline with Tween-80).

`O=C1N[C@@H]([C@H]2CC[C@H](Cl)CN2)C(=O)N[C@H]1[C@H]1CC[C@H](Cl)CN1`: the survivor count (dose: 10.0 mg/kg/injection, schedule: Q01DX010 (sc), vehicle: water) was 0 of 2 on day 11.

With `CCCC1CCC(=C2C(=O)CCC2=O)O1` (configuration not stated), the survivor count under setting [2] was 3 of 6 on day 11, the survivor count under setting [3] was 1 of 6 on day 11 and the survivor count under setting [1] is listed as 0 of 6 on day 11.

On to `CSc1cc(=O)n2c3ccccc3c3ccnc1c32`, for which, under “dose: 640.0 mg/kg/injection, schedule: Q04DX003 (sc), vehicle: saline with Tween-80”, the survivor count was 2 of 5 on day 11.

Consider `Nc1ncnc2c1ncn2C1OC(CO)C(O)C1O` (configuration not stated), for which, under “dose: 300.0 mg/kg/injection, schedule: Q04DX003 (sc), vehicle: saline”, the survivor count was 0 of 6 on day 11.

As for `CC(=O)OCC1OC([S-])C(OC(C)=O)C(OC(C)=O)C1OC(C)=O.CC[PH+](CC)CC.CC[PH+](CC)CC.[Au].[Au]` (configuration not stated), for the setting “dose: 6.25 mg/kg/injection, schedule: Q04DX003 (ip), vehicle: Klucel (hydroxypropylcellulose) (HPC)”, the T/C is 125 % of control. Moreover, the survivor count (dose: 25.0 mg/kg/injection, schedule: Q04DX003 (ip), vehicle: Klucel (hydroxypropylcellulose) (HPC)) is reported as 0 of 6 on day 11.

On to `CC(NNC(=S)N(C)C1CCCCC1)c1cc2ccccc2cn1` (configuration not stated), for which the survivor count is on record as 3 of 6 on day 11 (dose: 300.0 mg/kg/injection, schedule: Q04DX003 (ip), vehicle: saline); 0 of 6 on day 11 (dose: 600.0 mg/kg/injection, schedule: Q04DX003 (ip), vehicle: saline); 0 of 6 on day 11 (dose: 1200.0 mg/kg/injection, schedule: Q04DX003 (ip), vehicle: saline).

As to `COc1ccc2c(c1)-c1nn(CCCN(C)C)c3ccc([N+](=O)[O-])c(c13)N2`, the survivor count by setting is: (dose: 100.0 mg/kg/injection, schedule: Q04DX003 (ip), vehicle: water) 1 of 6 on day 11 and 2 of 6 on day 11; (dose: 200.0 mg/kg/injection, schedule: Q04DX003 (ip), vehicle: water) 0 of 6 on day 11.

With `N=C(N)c1ccc(N=NNc2ccc(C(=N)N)cc2)cc1`, the survivor count was 0 of 6 on day 11 under setting [2] and 0 of 6 on day 11 under setting [3].

Take `COc1ccc(CC2C(=O)NC(C)C(=O)N(C)C3Cc4ccc(cc4)Oc4cc(ccc4O)CC(C(=O)NC(C)C(=O)NC(C)C(=O)N2C)N(C)C3=O)cc1` (configuration not stated): where the note is “dose: 48.0 mg/kg/injection, schedule: Q04DX003 (sc), vehicle: saline with Tween-80”, the survivor count is 0 of 6 on day 11.

Turning to `NCCCNCCCCNC(=O)C(O)NC(=O)CC(O)CCCCN=C(N)N` (configuration not stated), the survivor count (dose: 100.0 mg/kg/injection, schedule: Q04DX003 (ip), vehicle: saline) was 3 of 6 on day 11; the survivor count (dose: 200.0 mg/kg/injection, schedule: Q04DX003 (ip), vehicle: saline) was 0 of 6 on day 11; the survivor count (dose: 400.0 mg/kg/injection, schedule: Q04DX003 (ip), vehicle: saline) is on record as 0 of 6 on day 11; the survivor count (dose: 800.0 mg/kg/injection, schedule: Q04DX003 (ip), vehicle: saline) is 0 of 6 on day 11.

For the compound `COc1ccc2c(c1)n([O-])c1ccccc1[n+]2=O`, the survivor count (dose: 400.0 mg/kg/injection, schedule: Q04DX003 (ip), vehicle: saline with Tween-80) was 0 of 6 on day 11.

As for `O=C1c2c(O)cccc2-c2nn(CCNCCO)c3ccc(NCCNCCO)c1c23`, the survivor count (dose: 22.0 mg/kg/injection, schedule: Q04DX003 (ip), vehicle: water) is 1 of 6 on day 11.

On to `NCCCNCCCCNC(=O)C(O)NC(=O)CCCCCCN=C(N)N` (configuration not stated), for which the survivor count (dose: 50.0 mg/kg/injection, schedule: Q04DX003 (ip), vehicle: saline with Tween-80) is listed as 0 of 6 on day 11; the survivor count (dose: 100.0 mg/kg/injection, schedule: Q04DX003 (ip), vehicle: saline with Tween-80) is listed as 0 of 6 on day 11; the survivor count (dose: 200.0 mg/kg/injection, schedule: Q04DX003 (ip), vehicle: saline with Tween-80) was 0 of 6 on day 11.

`ClC1(Cl)Cc2ccccc21`: the survivor count under setting [1] is reported as 0 of 6 on day 11.

On to `CS(=O)(=O)c1ncc(Br)cn1`, for which the T/C was 144 % of control (dose: 50.0 mg/kg/injection, schedule: Q01DX010 (sc), vehicle: distilled water + Tween-80) and 147 % of control (dose: 100.0 mg/kg/injection, schedule: Q01DX010 (sc), vehicle: distilled water + Tween-80).
